For this assay, the target named is T1, purified human C-reactive protein (CRP) (human) (UniProt P02741).
T1 sequence: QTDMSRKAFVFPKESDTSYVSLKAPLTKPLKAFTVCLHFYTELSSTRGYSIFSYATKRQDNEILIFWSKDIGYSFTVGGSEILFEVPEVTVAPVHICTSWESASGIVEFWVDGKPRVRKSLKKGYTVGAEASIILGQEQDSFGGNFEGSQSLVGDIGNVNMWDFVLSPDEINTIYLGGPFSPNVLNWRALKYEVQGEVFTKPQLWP
Briefly: condition: 5 µg/ml receptor; 40 µg/ml CRP added to the serum; flow cytometry of protein-coated crystals; MSU crystals (lot1) opsonized in human serum of three donors with or without 40 µg/ml CRP at 37°C for 30 min, washed, then 5 µg/ml His-tagged receptor in HBSS + 5% BSA at 4°C for 60 min; detected with anti-His Tag PE; only the binder purified. For orientation: Flow cytometry measures light scatter and fluorescence of single cells or particles in a stream.

Amino acid sequences for entries named in this document (tags omitted). Residues count along the entry.
UniProt Q9UEW3, residues 65-520: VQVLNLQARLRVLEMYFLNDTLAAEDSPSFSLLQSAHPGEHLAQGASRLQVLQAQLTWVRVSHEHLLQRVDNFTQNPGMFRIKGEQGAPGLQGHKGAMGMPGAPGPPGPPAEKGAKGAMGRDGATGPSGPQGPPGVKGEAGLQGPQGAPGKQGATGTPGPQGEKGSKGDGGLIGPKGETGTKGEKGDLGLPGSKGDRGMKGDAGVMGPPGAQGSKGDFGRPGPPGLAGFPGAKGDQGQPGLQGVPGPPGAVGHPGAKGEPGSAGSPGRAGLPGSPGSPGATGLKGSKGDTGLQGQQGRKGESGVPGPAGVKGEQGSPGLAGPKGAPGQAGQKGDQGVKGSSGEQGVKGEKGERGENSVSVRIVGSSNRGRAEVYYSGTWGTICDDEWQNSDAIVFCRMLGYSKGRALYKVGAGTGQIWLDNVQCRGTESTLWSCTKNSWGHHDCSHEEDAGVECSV

These are yes or no findings as the source states them, for the method shown.

On to “recombinant His-tagged human LDLR (low-density lipoprotein receptor) (from UniProt P01130 22-788)”, for which the binding entry is given as “no binding”.
Next, “recombinant His-tagged human MARCO (macrophage receptor with collagenous structure) (from UniProt Q9UEW3-1 65-520)”: “no binding”.

These data come from article PMC7753766.
